From paper PMC4177551
These are yes or no findings as the source states them, for the method shown. Binding seen in cells or lysates may run through a third protein. A yes stands for co-enrichment or nearness to the bait. Other partners may have been found.

Protein sequences, listed by entry. Tags and fused reporters are not part of them. Residues count along the entry.
UniProt Q13123: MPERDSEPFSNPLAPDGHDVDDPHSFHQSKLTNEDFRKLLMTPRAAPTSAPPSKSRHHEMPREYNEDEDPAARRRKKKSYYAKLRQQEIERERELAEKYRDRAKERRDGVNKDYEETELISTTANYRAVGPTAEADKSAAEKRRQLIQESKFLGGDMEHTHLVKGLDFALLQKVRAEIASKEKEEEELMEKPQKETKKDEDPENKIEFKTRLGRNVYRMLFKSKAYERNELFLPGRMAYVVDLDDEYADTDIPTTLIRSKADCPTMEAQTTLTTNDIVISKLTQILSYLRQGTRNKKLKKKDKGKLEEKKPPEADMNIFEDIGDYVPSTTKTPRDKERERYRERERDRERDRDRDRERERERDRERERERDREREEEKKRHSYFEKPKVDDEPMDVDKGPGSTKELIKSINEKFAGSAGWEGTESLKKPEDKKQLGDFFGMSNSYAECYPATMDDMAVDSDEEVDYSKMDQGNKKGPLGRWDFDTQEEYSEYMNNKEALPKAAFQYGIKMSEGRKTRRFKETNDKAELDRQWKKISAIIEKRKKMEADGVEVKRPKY
UniProt P0DMV8: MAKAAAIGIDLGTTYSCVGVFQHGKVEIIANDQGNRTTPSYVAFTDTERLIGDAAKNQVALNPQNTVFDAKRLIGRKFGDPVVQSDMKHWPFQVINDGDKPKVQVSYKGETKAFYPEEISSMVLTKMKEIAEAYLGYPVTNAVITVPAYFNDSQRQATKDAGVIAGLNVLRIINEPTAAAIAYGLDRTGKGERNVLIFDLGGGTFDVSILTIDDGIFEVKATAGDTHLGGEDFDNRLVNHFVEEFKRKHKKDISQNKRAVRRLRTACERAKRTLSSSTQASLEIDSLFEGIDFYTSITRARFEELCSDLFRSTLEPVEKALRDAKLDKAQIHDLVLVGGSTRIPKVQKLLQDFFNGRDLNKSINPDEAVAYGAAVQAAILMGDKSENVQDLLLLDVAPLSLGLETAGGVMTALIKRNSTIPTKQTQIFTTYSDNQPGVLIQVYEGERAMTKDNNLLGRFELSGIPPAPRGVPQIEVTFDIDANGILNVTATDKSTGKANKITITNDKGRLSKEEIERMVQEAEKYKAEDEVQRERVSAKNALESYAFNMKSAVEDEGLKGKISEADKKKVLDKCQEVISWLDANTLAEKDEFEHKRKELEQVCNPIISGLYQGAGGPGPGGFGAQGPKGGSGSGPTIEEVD
UniProt P07942, residues 22-1786: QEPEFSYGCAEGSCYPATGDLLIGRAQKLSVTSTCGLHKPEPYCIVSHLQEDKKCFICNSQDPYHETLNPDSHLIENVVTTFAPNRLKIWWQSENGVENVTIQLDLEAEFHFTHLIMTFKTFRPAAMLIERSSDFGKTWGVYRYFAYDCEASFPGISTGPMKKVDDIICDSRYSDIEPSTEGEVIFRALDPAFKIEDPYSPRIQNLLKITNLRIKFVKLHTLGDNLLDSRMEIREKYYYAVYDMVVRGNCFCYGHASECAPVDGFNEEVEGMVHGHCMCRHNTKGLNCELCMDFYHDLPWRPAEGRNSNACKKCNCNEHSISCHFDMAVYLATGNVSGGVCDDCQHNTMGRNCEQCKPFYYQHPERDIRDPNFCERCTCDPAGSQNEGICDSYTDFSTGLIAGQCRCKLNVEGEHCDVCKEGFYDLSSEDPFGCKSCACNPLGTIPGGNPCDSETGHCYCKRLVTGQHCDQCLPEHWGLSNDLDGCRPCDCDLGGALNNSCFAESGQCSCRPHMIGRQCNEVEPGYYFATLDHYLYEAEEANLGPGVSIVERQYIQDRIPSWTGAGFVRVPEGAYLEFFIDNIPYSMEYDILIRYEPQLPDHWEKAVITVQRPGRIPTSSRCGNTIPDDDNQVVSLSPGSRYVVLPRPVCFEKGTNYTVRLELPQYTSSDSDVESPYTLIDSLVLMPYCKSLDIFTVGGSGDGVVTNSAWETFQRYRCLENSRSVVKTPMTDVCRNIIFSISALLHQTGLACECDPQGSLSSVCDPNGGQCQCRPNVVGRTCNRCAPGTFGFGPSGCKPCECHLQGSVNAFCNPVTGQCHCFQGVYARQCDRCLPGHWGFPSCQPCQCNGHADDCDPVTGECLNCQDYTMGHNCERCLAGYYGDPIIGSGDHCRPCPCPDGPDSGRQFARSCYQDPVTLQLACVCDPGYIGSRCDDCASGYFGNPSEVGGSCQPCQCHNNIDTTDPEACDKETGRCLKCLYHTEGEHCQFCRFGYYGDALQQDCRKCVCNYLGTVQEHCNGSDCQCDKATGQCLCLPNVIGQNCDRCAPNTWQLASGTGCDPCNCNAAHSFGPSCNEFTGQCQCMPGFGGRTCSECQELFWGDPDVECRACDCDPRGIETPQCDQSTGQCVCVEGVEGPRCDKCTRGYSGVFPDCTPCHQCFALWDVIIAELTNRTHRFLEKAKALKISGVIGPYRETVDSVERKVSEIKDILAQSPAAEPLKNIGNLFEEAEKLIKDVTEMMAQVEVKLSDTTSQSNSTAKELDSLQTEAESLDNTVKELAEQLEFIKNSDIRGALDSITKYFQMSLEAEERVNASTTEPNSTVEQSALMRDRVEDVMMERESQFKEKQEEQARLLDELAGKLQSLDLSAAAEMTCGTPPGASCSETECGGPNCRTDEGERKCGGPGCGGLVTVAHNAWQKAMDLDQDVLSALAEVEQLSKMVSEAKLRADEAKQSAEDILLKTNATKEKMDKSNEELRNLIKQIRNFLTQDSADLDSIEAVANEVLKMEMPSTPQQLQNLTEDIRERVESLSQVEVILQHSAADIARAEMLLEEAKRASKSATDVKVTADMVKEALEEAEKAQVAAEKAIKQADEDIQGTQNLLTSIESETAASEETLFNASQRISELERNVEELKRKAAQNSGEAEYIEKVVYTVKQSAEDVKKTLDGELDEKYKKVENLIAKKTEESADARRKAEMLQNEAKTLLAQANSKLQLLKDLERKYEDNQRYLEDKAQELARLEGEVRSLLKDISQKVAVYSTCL
UniProt P56703, residues 22-355: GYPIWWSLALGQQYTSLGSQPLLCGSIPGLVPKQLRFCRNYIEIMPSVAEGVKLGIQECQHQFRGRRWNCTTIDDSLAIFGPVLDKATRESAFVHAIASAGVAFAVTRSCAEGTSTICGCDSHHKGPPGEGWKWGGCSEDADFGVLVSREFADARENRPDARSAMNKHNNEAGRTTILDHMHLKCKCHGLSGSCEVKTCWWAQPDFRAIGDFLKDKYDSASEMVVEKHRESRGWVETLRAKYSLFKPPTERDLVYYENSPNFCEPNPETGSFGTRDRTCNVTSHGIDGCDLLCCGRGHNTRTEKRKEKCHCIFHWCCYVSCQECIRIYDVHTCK
UniProt O43143: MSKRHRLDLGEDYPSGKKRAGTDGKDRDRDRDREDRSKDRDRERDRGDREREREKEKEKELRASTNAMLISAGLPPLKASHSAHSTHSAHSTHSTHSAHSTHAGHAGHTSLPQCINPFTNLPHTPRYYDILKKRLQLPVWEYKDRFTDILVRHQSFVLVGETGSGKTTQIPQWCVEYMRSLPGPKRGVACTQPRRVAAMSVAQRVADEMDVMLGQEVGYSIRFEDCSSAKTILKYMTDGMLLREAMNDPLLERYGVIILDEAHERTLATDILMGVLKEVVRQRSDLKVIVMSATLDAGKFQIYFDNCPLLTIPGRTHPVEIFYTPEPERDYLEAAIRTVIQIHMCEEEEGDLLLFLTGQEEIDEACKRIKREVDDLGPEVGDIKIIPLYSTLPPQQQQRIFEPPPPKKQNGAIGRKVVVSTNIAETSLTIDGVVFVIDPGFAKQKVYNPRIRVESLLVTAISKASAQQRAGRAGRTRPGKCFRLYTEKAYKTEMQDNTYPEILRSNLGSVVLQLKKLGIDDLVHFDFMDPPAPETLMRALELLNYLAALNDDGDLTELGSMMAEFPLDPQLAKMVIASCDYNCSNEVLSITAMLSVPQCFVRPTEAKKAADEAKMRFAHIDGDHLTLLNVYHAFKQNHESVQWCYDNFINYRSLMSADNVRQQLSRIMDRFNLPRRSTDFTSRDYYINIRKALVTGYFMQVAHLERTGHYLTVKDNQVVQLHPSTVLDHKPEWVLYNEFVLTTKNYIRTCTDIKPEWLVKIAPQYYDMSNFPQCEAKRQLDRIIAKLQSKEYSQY

B1: Zinc finger protein 518B (protein, UniProt Q9C0D4 1-1074)
chain: MKDIGQQLYTTHLNGGHNSLTMSPKQPDANGAPRPNRQEAQTLLYQGSEAEAAMMTIATCAKCKSVHKISLQDLQKGTGKDGMYVCFQCSLGAAPPNFHFVSNNSSATHVGNKTENFSSSVNSKFKVRNFKPGKYYCDKCRFSTKDPLQYKKHTLQHEEIKFICSHCSYISYTKGEFQRHLVKHTGIFPYQCEYCDYGAIRNDYIVKHTKRVHERAGAKRPVKAVAKLEPKRTGTSKQNPELLKASNPRTTFQNKWSDQLSGFSLHANKDKMHNIMLLPEPKEYQKDVVCIPNKMTLSEPNEVNLFENKNVEVEVLSPAKEPVQPGMPLTVVAPAELVVPANCLAQLIDVKVVNGTQQLVLKLFPLEENNCLEAGRDNGGNSERMVKEKGSNEQEKVLSAEKTKSLTVDGNVGKLVGIDSFQPSVQKQLKNVKWVRSYDFIMPNSSVHNNGKSFINSETIEDFQKKNNLYPHRTAFPSVALKGHSLASVFKNSVLRSLGAASNPFPYKAAVCFAESGRNLHSSSQQLLPFAASPATCSFSGEKGLLPVSENDLESTSKVNIPVKVVSSNRKQEDNQTEEHKAVSTVGQISSQHKSEYLHINITGEDRSQQPGDKPLELKNSERTNNTNDGPVISSVFSLSSGSENVPEGIKWNSSTSKIKSIELLRRKIAQLIESCGKPSSLASNSAHRRSVGQASKGTSKATSEGIQEINVSLTGLGHSTGTLQKPPNDGGITGNRQLTHQQIYPHFADGSNRKTKSRVARKAHVATPVLIPKGAVLRVLNSSENAHIIEATCEAPVSIPCSERQLIKPVPFCPVRQADSDLQPLRSERGPIDMSPNIETPLRPKLRKESAVCSTIHRKTGLLYGQQGSSELNKQGRLLSRSLSISRNKTKQVHLSRKKNKIQAEPSRCLKDPSIFQVARQLRLIAAKPDQLIKCPRRNQPVIVLNHPDVDSPEVTNVMKVINKYKGNVLKVVLSERTRCQLGIRRHHVRLTYQNAEEASQIKRQMMLKMKLKKVHKNNYQVVDSLPDDSSQCVFKCWFCGRLYEDQEEWMSHGQRHLIEATRDWDVLSSKGK
B2: Isoform 1 of Interleukin-25 (protein, UniProt Q9H293 33-177)
chain: YSHWPSCCPSKGQDTSEELLRWSTVPVPPLEPARPNRHPESCRASEDGPLNSRAISPWRYELDRDLNRLPQDLYHARCLCPHCVSLQTGSHMDPRGNSELLYHNQTVFYRRPCHGEKGTHKGYCLERRLYRVSLACVCVRPRVMG
B3: Zinc finger and SCAN domain-containing protein 5B (protein, UniProt A6NJL1 1-495)
chain: MAANWTLSWGQGGPCNSPGSDTPRSVASPETQLGNHDRNPETWHMNFRMFSCPEESDPIQALRKLTELCHLWLRPDLHTKEQILDMLVMEQFMISMPQELQVLVKVNGVQSCKDLEDLLRNNRRPKKWSIVNLLGKEYLMLNSDVEMAEAPASVRDDPRDVSSQWASSVNQMHPGTGQARREQQILPRVAALSRRQGEDFLLHKSIDVTGDPNSPRPKQTLEKDLKENREENPGLSSPEPQLPKSPNLVRAKEGKEPQKRASVENVDADTPSACVVEREALTHSGNRGDALNLSSPKRSKPDASSISQEEPQGEATPVGNRESPGQAEINPVHSPGPAGPVSHPDGQEAKALPPFACDVCNKSFKYFSQLSIHRRSHTGDRPFQCDLCRKRFLQPSDLRVHQRVHTGERPYMCDVCQKRFAHESTLQGHKRIHTGERPFKCKYCSKVFSHKGNLNVHQRTHSGEKPYKCPTCQKAFRQLGTFKRHLKTHRETTSQ
B4: Isoform Long of 52KD repressor of the inhibitor of the protein kinase (protein, UniProt O43422 1-761)
chain: MPNFCAAPNCTRKSTQSDLAFFRFPRDPARCQKWVENCRRADLEDKTPDQLNKHYRLCAKHFETSMICRTSPYRTVLRDNAIPTIFDLTSHLNNPHSRHRKRIKELSEDEIRTLKQKKIDETSEQEQKHKETNNSNAQNPSEEEGEGQDEDILPLTLEEKENKEYLKSLFEILILMGKQNIPLDGHEADEIPEGLFTPDNFQALLECRINSGEEVLRKRFETTAVNTLFCSKTQQRQMLEICESCIREETLREVRDSHFFSIITDDVVDIAGEEHLPVLVRFVDESHNLREEFIGFLPYEADAEILAVKFHTMITEKWGLNMEYCRGQAYIVSSGFSSKMKVVASRLLEKYPQAIYTLCSSCALNMWLAKSVPVMGVSVALGTIEEVCSFFHRSPQLLLELDNVISVLFQNSKERGKELKEICHSQWTGRHDAFEILVELLQALVLCLDGINSDTNIRWNNYIAGRAFVLCSAVSDFDFIVTIVVLKNVLSFTRAFGKNLQGQTSDVFFAAGSLTAVLHSLNEVMENIEVYHEFWFEEATNLATKLDIQMKLPGKFRRAHQGNLESQLTSESYYKETLSVPTVEHIIQELKDIFSEQHLKALKCLSLVPSVMGQLKFNTSEEHHADMYRSDLPNPDTLSAELHCWRIKWKHRGKDIELPSTIYEALHLPDIKFFPNVYALLKVLCILPVMKVENERYENGRKRLKAYLRNTLTDQRSSNLALLNINFDIKHDLDLMVDTYIKLYTSKSELPTDNSETVENT

biological target: His6-IK (Protein RED) (human) (UniProt Q13123); assay: affinity purification with mass spectrometry; two steps: His6-IK from lysate of transfected HEK293K cells held on Ni2+-IDA-agarose (4°C overnight), eluted with 300 mM imidazole, then immunoprecipitated with anti-IK antibody (control IgG beside it) on protein G-agarose; SDS-PAGE, Coomassie Blue, gel areas analysed by mass spectrometry

binding, binds:
B1
B2
B3
B4

biological target: His6-IK (Protein RED) (human) (UniProt Q13123); assay: as above; remark: another data set of the same source

binding, binds:
Heat shock 70 kDa protein 1A/1B (from UniProt P0DMV8 1-641)
Laminin subunit beta-1 (from UniProt P07942 22-1786)
Proto-oncogene Wnt-3 (from UniProt P56703 22-355)
Putative pre-mRNA-splicing factor ATP-dependent RNA helicase DHX15 (from UniProt O43143 1-795)
